Source: publication doi:10.1101/2024.05.22.594599
Like-named read-outs stand apart in the source and are kept apart here. These are yes or no findings as the source states them, for the method shown. In cells and extracts the contact can be indirect. Some results given as binding are weak or reduced against the parent protein; the word gives no strength.

Sequences of proteins named here, by UniProt entry; tags and fusion partners are left off.
UniProt P60953: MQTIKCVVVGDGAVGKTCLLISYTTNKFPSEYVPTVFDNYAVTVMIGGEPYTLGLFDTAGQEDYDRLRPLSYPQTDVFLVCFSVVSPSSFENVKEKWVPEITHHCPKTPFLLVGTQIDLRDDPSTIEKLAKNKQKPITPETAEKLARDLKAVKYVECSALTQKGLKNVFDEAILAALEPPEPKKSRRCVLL
UniProt O96013: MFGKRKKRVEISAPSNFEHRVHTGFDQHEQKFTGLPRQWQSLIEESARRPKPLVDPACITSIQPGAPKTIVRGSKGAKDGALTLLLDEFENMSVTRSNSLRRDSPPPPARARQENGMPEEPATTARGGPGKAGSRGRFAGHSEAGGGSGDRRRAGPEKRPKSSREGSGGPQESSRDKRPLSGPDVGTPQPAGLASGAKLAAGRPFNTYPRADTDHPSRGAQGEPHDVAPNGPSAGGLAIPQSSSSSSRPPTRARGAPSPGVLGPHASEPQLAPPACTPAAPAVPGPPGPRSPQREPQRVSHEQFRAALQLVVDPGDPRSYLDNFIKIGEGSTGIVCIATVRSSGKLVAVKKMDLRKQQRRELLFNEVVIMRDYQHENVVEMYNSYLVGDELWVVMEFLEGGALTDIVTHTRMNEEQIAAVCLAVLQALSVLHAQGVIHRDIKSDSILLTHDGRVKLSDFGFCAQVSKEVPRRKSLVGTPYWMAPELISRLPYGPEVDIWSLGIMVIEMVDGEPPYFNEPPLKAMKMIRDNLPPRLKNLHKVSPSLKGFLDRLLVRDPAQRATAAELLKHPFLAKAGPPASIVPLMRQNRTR

Key:
Assay in all cases: co-IP
[1] = target: T1, Hakai (human (endogenous in SU.86.86 and PANC-1)) (UniProt Q75N03)
T1 sequence: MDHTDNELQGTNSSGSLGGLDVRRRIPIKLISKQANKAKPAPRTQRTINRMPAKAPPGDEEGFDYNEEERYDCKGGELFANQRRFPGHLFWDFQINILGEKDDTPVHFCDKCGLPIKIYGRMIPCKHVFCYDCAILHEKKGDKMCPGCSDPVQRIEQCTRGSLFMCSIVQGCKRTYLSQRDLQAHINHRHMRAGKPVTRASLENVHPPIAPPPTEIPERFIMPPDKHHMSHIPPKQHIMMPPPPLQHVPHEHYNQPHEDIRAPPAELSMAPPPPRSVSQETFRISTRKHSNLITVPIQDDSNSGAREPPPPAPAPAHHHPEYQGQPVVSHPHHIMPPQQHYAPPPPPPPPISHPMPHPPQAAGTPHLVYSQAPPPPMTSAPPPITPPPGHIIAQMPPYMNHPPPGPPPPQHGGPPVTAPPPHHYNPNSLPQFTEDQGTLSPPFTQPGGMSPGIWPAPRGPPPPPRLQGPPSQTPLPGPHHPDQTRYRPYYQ

[2] = target: Cdc42 (human (endogenous in SU.86.86)) (UniProt P60953)
[3] = target: p21-activated kinase 4 (PAK4) (human (endogenous in SU.86.86)) (UniProt O96013)
[4] = target: Cdc42 (human (endogenous in SU.86.86)) (UniProt P60953); remark: listed apart in the source
[5] = target: p21-activated kinase 4 (PAK4) (human (endogenous in SU.86.86)) (UniProt O96013); remark: listed apart in the source

p21-activated kinase 4 (PAK4) (from UniProt O96013 1-591)
binding [1]: binds | binding [2]: binds

Cdc42 (from UniProt P60953 1-191)
binding [3]: binds

B1: p120ctn (protein, UniProt O60716 1-968)
chain: MDDSEVESTASILASVKEQEAQFEKLTRALEEERRHVSAQLERVRVSPQDANPLMANGTLTRRHQNGRFVGDADLERQKFSDLKLNGPQDHSHLLYSTIPRMQEPGQIVETYTEEDPEGAMSVVSVETSDDGTTRRTETTVKKVVKTVTTRTVQPVAMGPDGLPVDASSVSNNYIQTLGRDFRKNGNGGPGPYVGQAGTATLPRNFHYPPDGYSRHYEDGYPGGSDNYGSLSRVTRIEERYRPSMEGYRAPSRQDVYGPQPQVRVGGSSVDLHRFHPEPYGLEDDQRSMGYDDLDYGMMSDYGTARRTGTPSDPRRRLRSYEDMIGEEVPSDQYYWAPLAQHERGSLASLDSLRKGGPPPPNWRQPELPEVIAMLGFRLDAVKSNAAAYLQHLCYRNDKVKTDVRKLKGIPVLVGLLDHPKKEVHLGACGALKNISFGRDQDNKIAIKNCDGVPALVRLLRKARDMDLTEVITGTLWNLSSHDSIKMEIVDHALHALTDEVIIPHSGWEREPNEDCKPRHIEWESVLTNTAGCLRNVSSERSEARRKLRECDGLVDALIFIVQAEIGQKDSDSKLVENCVCLLRNLSYQVHREIPQAERYQEAAPNVANNTGPHAASCFGAKKGKDEWFSRGKKPIEDPANDTVDFPKRTSPARGYELLFQPEVVRIYISLLKESKTPAILEASAGAIQNLCAGRWTYGRYIRSALRQEKALSAIADLLTNEHERVVKAASGALRNLAVDARNKELIGKHAIPNLVKNLPGGQQNSSWNFSEDTVISILNTINEVIAENLEAAKKLRETQGIEKLVLINKSGNRSEKEVRAAALVLQTIWGYKELRKPLEKEGWKKSDFQVNLNNASRSQSSHSYDDSTLPLIDRNQKSDKKPDREEIQMSNMGSNTKSLDNNYSTPNERGDHNRTLDRSGDLGDMEPLKGTTPLMQDEGQESLEEELDVLVLDDEGGQVSYPSMQKI
binding [4]: binds | binding [5]: binds
